# Results from the supplement of paper PMC12889115.
# Some of the results follow. These are raw signals, not scaled to a control.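 Primary screen: polymyxin B was added at a level permeabilizing Salmonella outer membranes while sparing inner membranes. DMSO wells, both with and without polymyxin B, established maximum growth. Plate-to-plate variation meant each plate was ranked on its own, and the lowest-OD600 compounds were selected as hits.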
# Test system: Salmonella enterica serovar Typhimurium SL1344
# Experiment: bacterial growth OD600 after 18 h with compound and polymyxin B; higher = more bacterial growth (less inhibition)
# Conditions: 50 µM, Mueller-Hinton broth
smiles,measurement,setting,value
O=C(CCc1ccc2c(c1)OCO2)NC1CCCN(c2ccc(C(F)(F)F)cn2)C1 (stereo not given),bacterial growth OD600,polymyxin B 1 µg/mL,0.87
CCOC(=O)C1(Cc2ccc(Cl)cc2)CCN(CCCn2cccn2)CC1,bacterial growth OD600,polymyxin B 1 µg/mL,0.65
Cc1ccccc1CC(C1CCN(C(=O)C(=O)CC(C)C)CC1)N(C)C(=O)Cn1cccn1 (stereo not given),bacterial growth OD600,polymyxin B 0.75 µg/mL,0.832
COc1ccccc1OC1CCN(Cc2nc(-c3cccc(Cl)c3)no2)CC1,bacterial growth OD600,polymyxin B 1 µg/mL,0.554
CCO[C@H]1[C@H](NC(=O)c2cccnc2)c2ccccc2C12CCN(C(=O)C1=CCCC1)CC2,bacterial growth OD600,polymyxin B 0.75 µg/mL,0.758
COc1cccc(-n2cc(CNC(=O)c3cn(C4CC4)cc(C(=O)NC4CCCCC4)c3=O)cn2)c1,bacterial growth OD600,polymyxin B 0.75 µg/mL,0.012
Cc1ccc(Oc2ncccc2CNC(=O)Cc2ccncc2)c(F)c1F,bacterial growth OD600,polymyxin B 1 µg/mL,0.905
OC1CCCN(c2ccc(-c3nc(COc4ccccc4)no3)cn2)C1 (stereo not given),bacterial growth OD600,polymyxin B 1 µg/mL,0.771
O=C(C1CCCCCC1)N1CCC2(CCCN(CC3CC3)C2=O)C1 (stereo not given),bacterial growth OD600,polymyxin B 1 µg/mL,1.11
CC(C)N1CCN(CC2(O)CCCN(Cc3cccc(F)c3F)C2=O)CC1 (stereo not given),bacterial growth OD600,polymyxin B 1 µg/mL,1.01
CC(C)(C)NC(=O)c1coc(COc2ccccc2)n1,bacterial growth OD600,polymyxin B 0.75 µg/mL,0.74
CN(Cc1cnn(C)c1)c1ccc(-c2nc(COc3ccccc3)no2)cn1,bacterial growth OD600,polymyxin B 1 µg/mL,0.656
Cc1ccc(CNC(=O)c2cc(NC(=O)C3CCCO3)c3c(c2)nc(C2CCC2)n3C)cc1 (stereo not given),bacterial growth OD600,polymyxin B 0.75 µg/mL,0.843
O=C(CCC1CCN(Cc2cccn2-c2cccnc2)CC1)NCC1CCCO1 (stereo not given),bacterial growth OD600,polymyxin B 0.75 µg/mL,0.792
CCO[C@H]1[C@H](NC(=O)c2cccnc2)c2ccccc2C12CCN(C(=O)c1cc3ccccc3[nH]1)CC2,bacterial growth OD600,polymyxin B 0.75 µg/mL,0.707
Cc1ccc(CC(C)N2CCC(n3nccc3NC(=O)CC(C)C)CC2)nc1 (stereo not given),bacterial growth OD600,polymyxin B 0.75 µg/mL,0.78
COCC(=O)N1CCC2(CCCN(Cc3ccc(F)cc3)C2=O)C1 (stereo not given),bacterial growth OD600,polymyxin B 1 µg/mL,1.08
CCOc1ccc(CN2CCN(Cc3cccc(C)c3)CC2CCO)cc1 (stereo not given),bacterial growth OD600,polymyxin B 1 µg/mL,0.872
COc1ccc(OC)c(CN2CCC(C(Cc3ccccc3Cl)N(C)C(=O)c3ccco3)CC2)c1 (stereo not given),bacterial growth OD600,polymyxin B 0.75 µg/mL,0.93
O=C(Nc1ccnn1C1CCN(CCCC2CCCC2)CC1)C1CCOC1 (stereo not given),bacterial growth OD600,polymyxin B 1 µg/mL,1.03

# 2 of these compounds in a different format.
smiles | measurement | setting | value
COc1cccc(-n2cc(CNC(=O)c3cn(C4CC4)cc(C(=O)NC4CCCCC4)c3=O)cn2)c1 | bacterial growth OD600 | polymyxin B 0.75 µg/mL | 0.012
Cc1ccc(Oc2ncccc2CNC(=O)Cc2ccncc2)c(F)c1F | bacterial growth OD600 | polymyxin B 1 µg/mL | 0.905
